From the supplement of paper PMC10849652
This is one part of the list.

Sequences of proteins named here, by UniProt entry; tags and fusion partners are left off. A change or cut given only in a name is not applied to a line headed by its entry.
UniProt Q9HCH0: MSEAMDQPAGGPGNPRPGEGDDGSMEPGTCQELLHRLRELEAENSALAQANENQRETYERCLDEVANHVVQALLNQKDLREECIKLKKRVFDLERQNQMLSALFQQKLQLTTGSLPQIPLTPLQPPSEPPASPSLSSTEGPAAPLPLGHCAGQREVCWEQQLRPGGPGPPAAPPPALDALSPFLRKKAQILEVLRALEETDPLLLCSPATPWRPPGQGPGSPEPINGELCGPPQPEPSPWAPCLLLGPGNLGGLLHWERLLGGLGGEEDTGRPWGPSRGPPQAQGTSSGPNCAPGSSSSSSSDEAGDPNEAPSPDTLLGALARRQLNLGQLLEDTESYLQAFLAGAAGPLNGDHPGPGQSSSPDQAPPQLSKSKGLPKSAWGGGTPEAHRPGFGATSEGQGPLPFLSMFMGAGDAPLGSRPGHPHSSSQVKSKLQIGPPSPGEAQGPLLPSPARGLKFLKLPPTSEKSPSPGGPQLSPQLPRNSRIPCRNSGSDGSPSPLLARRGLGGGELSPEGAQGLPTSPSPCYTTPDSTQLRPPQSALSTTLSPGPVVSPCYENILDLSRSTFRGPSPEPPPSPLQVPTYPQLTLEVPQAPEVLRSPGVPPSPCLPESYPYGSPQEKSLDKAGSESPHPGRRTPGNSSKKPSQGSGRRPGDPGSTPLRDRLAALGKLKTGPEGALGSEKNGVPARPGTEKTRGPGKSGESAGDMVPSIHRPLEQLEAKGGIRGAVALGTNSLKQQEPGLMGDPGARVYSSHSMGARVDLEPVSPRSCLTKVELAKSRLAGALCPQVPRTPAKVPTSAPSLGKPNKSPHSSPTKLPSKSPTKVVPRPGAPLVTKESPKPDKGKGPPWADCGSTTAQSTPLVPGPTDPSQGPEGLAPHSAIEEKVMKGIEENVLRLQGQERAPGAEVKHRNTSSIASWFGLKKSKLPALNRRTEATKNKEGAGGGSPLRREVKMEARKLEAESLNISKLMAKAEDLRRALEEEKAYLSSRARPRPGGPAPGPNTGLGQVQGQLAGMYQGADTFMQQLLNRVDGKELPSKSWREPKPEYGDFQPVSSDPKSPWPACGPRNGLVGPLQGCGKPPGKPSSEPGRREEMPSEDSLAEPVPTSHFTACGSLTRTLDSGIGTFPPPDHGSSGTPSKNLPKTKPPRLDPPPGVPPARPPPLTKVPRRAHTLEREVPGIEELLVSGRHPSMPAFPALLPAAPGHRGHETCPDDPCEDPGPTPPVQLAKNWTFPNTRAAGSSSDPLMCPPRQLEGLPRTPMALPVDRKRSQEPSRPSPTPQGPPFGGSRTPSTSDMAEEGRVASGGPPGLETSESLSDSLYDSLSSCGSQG
UniProt Q93015: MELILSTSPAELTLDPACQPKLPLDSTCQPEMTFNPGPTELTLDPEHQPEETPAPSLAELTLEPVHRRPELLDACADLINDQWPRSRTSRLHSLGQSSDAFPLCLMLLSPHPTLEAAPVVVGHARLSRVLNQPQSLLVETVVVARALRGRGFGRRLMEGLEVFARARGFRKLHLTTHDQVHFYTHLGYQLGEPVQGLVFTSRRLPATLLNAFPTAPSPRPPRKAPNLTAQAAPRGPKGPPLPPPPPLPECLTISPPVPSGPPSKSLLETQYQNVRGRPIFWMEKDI
UniProt Q9UL68: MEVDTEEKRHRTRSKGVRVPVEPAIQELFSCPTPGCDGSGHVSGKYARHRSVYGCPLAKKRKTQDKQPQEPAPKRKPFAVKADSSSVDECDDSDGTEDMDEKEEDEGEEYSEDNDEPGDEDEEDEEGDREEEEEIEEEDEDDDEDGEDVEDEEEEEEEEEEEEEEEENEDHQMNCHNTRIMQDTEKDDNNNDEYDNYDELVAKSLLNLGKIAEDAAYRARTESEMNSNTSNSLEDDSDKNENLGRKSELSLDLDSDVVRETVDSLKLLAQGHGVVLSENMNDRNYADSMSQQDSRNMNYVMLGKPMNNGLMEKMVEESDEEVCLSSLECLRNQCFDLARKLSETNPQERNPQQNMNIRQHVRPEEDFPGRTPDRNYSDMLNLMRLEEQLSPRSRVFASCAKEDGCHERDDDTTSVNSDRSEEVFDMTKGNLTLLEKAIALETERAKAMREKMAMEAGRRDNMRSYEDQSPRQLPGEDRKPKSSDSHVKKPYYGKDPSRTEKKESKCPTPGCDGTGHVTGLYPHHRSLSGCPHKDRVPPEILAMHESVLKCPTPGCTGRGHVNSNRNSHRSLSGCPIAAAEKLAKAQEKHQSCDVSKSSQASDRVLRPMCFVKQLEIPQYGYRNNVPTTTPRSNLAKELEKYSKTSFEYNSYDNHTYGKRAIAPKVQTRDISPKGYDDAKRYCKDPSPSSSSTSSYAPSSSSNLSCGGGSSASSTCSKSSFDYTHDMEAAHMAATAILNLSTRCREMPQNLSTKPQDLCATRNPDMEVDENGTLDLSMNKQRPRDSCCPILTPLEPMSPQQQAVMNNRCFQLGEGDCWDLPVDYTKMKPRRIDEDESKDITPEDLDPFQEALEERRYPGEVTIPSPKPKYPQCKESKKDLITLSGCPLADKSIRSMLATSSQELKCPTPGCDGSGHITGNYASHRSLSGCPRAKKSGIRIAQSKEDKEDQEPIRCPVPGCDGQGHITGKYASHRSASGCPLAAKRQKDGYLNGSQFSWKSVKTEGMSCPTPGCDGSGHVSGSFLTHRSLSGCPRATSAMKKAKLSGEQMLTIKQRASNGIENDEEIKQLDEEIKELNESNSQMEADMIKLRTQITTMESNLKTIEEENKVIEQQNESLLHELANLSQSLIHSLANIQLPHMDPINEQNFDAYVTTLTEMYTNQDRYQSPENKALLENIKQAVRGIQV
UniProt Q8IVL1: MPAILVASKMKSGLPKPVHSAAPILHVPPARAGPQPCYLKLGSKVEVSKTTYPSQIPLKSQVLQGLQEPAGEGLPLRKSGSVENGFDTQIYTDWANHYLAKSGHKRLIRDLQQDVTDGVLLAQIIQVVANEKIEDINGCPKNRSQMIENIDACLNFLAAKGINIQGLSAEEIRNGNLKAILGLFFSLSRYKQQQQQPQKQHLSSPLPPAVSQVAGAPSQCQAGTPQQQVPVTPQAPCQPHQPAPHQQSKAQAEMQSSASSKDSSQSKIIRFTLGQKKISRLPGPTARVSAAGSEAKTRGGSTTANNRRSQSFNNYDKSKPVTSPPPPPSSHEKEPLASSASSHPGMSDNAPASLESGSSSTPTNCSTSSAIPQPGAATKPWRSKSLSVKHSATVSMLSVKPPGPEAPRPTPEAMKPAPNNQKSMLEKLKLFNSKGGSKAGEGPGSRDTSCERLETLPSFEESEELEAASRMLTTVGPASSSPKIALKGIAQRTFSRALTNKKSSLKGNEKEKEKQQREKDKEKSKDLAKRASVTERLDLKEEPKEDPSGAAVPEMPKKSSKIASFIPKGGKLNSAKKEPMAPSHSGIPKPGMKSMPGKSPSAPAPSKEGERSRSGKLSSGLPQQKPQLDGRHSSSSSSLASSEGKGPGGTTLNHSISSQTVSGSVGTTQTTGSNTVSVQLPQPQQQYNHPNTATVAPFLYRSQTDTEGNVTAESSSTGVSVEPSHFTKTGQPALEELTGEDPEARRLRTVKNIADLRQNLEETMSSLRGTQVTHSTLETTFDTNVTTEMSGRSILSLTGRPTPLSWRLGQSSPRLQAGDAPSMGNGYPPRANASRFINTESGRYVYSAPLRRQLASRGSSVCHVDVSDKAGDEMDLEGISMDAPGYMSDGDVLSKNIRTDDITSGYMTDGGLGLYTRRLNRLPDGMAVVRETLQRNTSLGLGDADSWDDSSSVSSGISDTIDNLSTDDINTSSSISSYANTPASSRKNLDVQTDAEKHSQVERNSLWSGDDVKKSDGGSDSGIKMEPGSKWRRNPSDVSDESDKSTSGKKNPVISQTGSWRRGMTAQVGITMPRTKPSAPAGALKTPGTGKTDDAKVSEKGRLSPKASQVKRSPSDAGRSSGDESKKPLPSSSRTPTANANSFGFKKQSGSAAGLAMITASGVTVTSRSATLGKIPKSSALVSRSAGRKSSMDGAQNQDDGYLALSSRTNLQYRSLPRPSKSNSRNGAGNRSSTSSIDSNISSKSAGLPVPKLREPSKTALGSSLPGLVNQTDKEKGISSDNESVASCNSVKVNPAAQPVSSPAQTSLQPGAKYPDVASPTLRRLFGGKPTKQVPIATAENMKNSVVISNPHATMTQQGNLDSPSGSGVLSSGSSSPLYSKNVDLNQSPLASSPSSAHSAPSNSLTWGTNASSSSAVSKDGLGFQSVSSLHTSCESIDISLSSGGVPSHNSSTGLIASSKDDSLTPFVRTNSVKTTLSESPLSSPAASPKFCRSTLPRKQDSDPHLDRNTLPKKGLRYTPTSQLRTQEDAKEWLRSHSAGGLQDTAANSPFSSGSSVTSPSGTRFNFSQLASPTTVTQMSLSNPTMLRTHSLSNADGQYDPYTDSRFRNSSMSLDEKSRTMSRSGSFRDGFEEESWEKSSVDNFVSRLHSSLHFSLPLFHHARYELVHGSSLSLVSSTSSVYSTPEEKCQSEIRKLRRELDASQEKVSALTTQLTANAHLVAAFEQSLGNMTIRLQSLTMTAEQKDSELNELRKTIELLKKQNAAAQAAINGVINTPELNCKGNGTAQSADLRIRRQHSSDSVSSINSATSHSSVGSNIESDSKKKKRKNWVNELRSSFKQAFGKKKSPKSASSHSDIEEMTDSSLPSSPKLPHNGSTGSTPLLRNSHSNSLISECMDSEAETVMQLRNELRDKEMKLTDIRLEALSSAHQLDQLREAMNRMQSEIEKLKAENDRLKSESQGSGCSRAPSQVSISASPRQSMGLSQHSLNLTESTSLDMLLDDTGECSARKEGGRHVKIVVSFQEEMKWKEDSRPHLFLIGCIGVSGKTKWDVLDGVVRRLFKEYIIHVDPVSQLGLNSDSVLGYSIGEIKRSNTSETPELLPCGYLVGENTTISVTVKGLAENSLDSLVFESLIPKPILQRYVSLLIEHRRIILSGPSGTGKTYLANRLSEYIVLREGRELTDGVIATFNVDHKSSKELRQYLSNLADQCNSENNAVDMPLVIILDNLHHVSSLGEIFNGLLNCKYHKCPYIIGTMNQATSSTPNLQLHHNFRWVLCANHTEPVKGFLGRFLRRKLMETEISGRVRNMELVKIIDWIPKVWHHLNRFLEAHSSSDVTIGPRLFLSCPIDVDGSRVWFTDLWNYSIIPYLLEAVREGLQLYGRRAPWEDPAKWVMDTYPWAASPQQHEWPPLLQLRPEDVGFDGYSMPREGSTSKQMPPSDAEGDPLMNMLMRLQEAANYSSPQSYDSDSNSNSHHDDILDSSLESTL
UniProt Q96AH0: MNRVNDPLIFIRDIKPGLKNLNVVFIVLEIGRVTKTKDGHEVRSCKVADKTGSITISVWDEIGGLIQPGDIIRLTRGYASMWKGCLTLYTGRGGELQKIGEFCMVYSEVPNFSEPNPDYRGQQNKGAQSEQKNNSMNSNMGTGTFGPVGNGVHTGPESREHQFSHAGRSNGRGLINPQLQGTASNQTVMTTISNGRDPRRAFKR
UniProt O15049: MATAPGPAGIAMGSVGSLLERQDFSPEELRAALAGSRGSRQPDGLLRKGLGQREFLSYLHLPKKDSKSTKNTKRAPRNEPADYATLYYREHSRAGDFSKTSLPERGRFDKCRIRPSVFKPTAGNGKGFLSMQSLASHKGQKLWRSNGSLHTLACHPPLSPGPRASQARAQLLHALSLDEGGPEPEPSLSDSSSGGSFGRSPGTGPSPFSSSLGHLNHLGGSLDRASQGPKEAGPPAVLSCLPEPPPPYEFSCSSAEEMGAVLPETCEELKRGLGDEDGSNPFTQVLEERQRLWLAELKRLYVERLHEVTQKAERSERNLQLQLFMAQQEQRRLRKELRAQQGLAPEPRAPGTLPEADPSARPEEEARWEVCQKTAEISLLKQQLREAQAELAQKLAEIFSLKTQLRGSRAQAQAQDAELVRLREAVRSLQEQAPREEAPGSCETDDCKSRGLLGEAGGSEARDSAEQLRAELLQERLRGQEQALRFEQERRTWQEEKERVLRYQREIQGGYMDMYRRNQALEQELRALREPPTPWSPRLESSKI
UniProt Q6ZVX7: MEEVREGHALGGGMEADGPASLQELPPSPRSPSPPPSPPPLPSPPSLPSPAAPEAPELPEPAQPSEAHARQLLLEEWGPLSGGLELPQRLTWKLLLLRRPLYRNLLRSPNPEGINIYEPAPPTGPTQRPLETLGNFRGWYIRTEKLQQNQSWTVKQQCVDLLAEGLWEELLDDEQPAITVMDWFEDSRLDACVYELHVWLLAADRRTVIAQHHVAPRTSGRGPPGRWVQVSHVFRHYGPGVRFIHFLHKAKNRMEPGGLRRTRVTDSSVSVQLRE
UniProt P19105: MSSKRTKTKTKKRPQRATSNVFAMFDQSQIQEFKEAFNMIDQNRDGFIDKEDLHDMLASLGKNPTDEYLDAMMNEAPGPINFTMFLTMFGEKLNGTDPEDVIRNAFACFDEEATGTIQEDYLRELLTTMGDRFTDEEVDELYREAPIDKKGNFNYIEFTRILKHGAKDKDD

Tests used:
Test in all cases: log2 fold change, soluble protein after heating vs DMSO (PISA); higher = thermal stabilisation; K562 lysate, 10 uM; active = over 0.2 and 3.5 SD of the protein, either way, in both replicates (recomputed)
[1] = compound: CCCS(=O)(=O)Nc1ccc(F)c(C(=O)c2c[nH]c3ncc(Cl)cc23)c1F
In short: (§1)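 Log-two fold change in thermal stability relative to solvent controls is reported from duplicates. For each sample, crude K562 extract from dounce-homogenised pellets in PBS pH 7.4 with 1 mM MgCl2, at 1 mg/mL protein, was treated with 10 μM compound for 30 min. Aliquots heated for 3 min across 48°C-58°C were pooled, brought to 0.5% NP-40 at 4°C and cleared at 21,000xg for 90 min. The supernatant was quantified by TMTpro 16plex LC-MS/MS with channel sums equalised.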

barasertib = compound: CCN(CCCOc1ccc2c(Nc3cc(CC(=O)Nc4cccc(F)c4)[nH]n3)ncnc2c1)CCOP(=O)(O)O [barasertib]
In short: as §1

[2] = compound: CC[C@@H]1C(=O)N(C)c2cnc(Nc3ccc(C(=O)NC4CCN(C)CC4)cc3OC)nc2N1C1CCCC1
In short: as §1

volasertib = compound: CC[C@@H]1C(=O)N(C)c2cnc(Nc3ccc(C(=O)N[C@H]4CC[C@H](N5CCN(CC6CC6)CC5)CC4)cc3OC)nc2N1C(C)C [volasertib]
In short: as §1

[3] = compound: CCn1c(C(=O)N(C2CC2)C2CC2)cc2c3c(ncn3C)c(Nc3cc(C)n(C)n3)nc21
In short: as §1

[4] = compound: CCn1cc(-c2ccnc3[nH]c(-c4cccc(CN(C)C)c4)cc23)c(-c2ccc(NC(=O)N(C)C)cc2)n1
In short: as §1

[5] = compound: CN1CCC(CNc2ccc3ncc(-c4cccc(OC(F)(F)F)c4)n3n2)CC1
In short: as §1

sotrastaurin = compound: CN1CCN(c2nc(C3=C(c4c[nH]c5ccccc45)C(=O)NC3=O)c3ccccc3n2)CC1 [sotrastaurin]
In short: as §1

alvocidib = compound: CN1CC[C@H](c2c(O)cc(O)c3c(=O)cc(-c4ccccc4Cl)oc23)[C@H](O)C1 [alvocidib]
In short: as §1

Tubastatin A = compound: CN1CCc2c(c3ccccc3n2Cc2ccc(C(=O)NO)cc2)C1 [Tubastatin A]
In short: as §1

[6] = compound: CNC(=O)C1=CC=CC=C1NC2=NC(=NC=C2Cl)NC3=C(C=C(C=C3)N4CCOCC4)OC
In short: as §1

encorafenib = compound: COC(=O)N[C@@H](C)CNc1nccc(-c2cn(C(C)C)nc2-c2cc(Cl)cc(NS(C)(=O)=O)c2F)n1 [encorafenib]
In short: as §1

[7] = compound: COC(=O)[C@H](CCSC)NC(=O)C1=C(C=C(C=C1)NC[C@H](CS)N)C2=CC=CC=C2
In short: as §1

alisertib = compound: COc1cc(Nc2ncc3c(n2)-c2ccc(Cl)cc2C(c2c(F)cccc2OC)=NC3)ccc1C(=O)O [alisertib]
In short: as §1

[8] = compound: COc1cc2nc(-c3cc(F)ccc3O)nc(N[C@@H]3CNC[C@H]3C(C)(C)O)c2cc1OC
In short: as §1

gefitinib = compound: COc1cc2ncnc(Nc3ccc(F)c(Cl)c3)c2cc1OCCCN1CCOCC1 [gefitinib]
In short: as §1

saracatinib = compound: CN1CCN(CCOc2cc(OC3CCOCC3)c3c(Nc4c(Cl)ccc5c4OCO5)ncnc3c2)CC1 [saracatinib]
In short: as §1

[9] = compound: CNc1nc(-c2ccc3c(N)n[nH]c3c2)cc(N2C[C@@H](C(=O)NC3CCCCC3)CC[C@H]2C)n1
In short: as §1

vemurafenib = compound: CCCS(=O)(=O)Nc1ccc(F)c(C(=O)c2c[nH]c3ncc(-c4ccc(Cl)cc4)cc23)c1F [vemurafenib]
In short: as §1

defactinib = compound: CNC(=O)c1ccc(Nc2ncc(C(F)(F)F)c(NCc3nccnc3N(C)S(C)(=O)=O)n2)cc1 [defactinib]
In short: as §1

Measured: log2 fold change

MYLK3 (UniProt Q32MK0)
inactive: [1] 0.047 | barasertib 0.017 | [2] 0.029 | volasertib -0.071 | [3] -0.163 | [4] 0.39 | [5] 0 | sotrastaurin 0.032 | alvocidib 0.306 | Tubastatin A 0.039 | [6] -0.048 | encorafenib -0.003 | [7] 0.328 | alisertib -0.014 | [8] -0.136 | gefitinib 0.045

MYOF (UniProt Q9NZM1)
inactive: saracatinib 0.156 | [9] 0

MXRA8 isoform 2 (UniProt Q9BRK3)
inactive: barasertib 0.019

NASP isoform 2 (UniProt P49321)
inactive: [1] -0.016 | barasertib 0.01 | volasertib 0.017 | [4] 0.889 | [5] -0.736 | alvocidib 0.36 | [8] -0.029

NCKAP5L (UniProt Q9HCH0)
inactive: [1] 0.04 | [2] 0.119 | volasertib -0.062 | [3] -0.012 | [4] 0.046 | [5] 0.031 | saracatinib -0.043 | sotrastaurin -0.016 | alvocidib -0.044 | Tubastatin A 0.003 | [6] 0.041 | [9] 0 | encorafenib 0.066 | [7] 0.036 | alisertib -0.056 | [8] -0.057 | gefitinib 0.056

MYH7 (UniProt P12883)
inactive: barasertib 0.391

MYH6 (UniProt P13533)
inactive: [1] -0.081 | barasertib 0.006 | [2] 0.215 | volasertib 0.084 | [3] -0.137 | sotrastaurin -0.017 | Tubastatin A 0.142 | [6] -0.06 | encorafenib -0.048 | [7] 0.082 | [8] 0.206

MYH3 (UniProt P11055)
inactive: vemurafenib -0.045 | [3] -0.044 | [4] 0.128 | [5] -0.346 | saracatinib -0.125 | alvocidib 0.045 | Tubastatin A -0.017 | [6] 0.152 | defactinib -0.111 | [9] -0.325

NAA80 isoform 2 (UniProt Q93015)
inactive: [3] -0.084 | Tubastatin A -0.111 | [6] -0.066 | alisertib 0.061 | gefitinib -0.122

NAP1L4 (UniProt C9JZI7)
inactive: [1] -0.071 | volasertib -0.162 | saracatinib 0.077 | [6] 0.088 | [9] 0.019 | [8] 0.038

MYT1L (UniProt Q9UL68)
inactive: [1] -0.031 | volasertib 0.043 | [3] -0.045 | Tubastatin A 0.112 | [8] -0.007

NCOA7 isoform 2 (UniProt Q8NI08)
inactive: [1] 0.16 | volasertib -0.01 | saracatinib -0.016 | [9] 0.121 | [8] 0.157

NACA2 (UniProt Q9H009)
inactive: [3] 0.114 | saracatinib -0.078 | Tubastatin A -0.153 | [9] -0.081

NAP1L1 (UniProt H0YHC3)
inactive: [1] -0.194 | volasertib -0.177 | [8] -0.032

NACC2 (UniProt Q96BF6)
inactive: vemurafenib 0.053 | [2] -0.391 | [3] 0.039 | [4] -0.034 | [5] 0.096 | saracatinib -0.176 | sotrastaurin 0.068 | alvocidib 0.022 | Tubastatin A 0.053 | [6] -0.007 | defactinib 0.088 | [9] -0.287 | encorafenib -0.046 | [7] -0.015 | alisertib 0.029 | gefitinib 0.112

NAV2 (UniProt Q8IVL1)
inactive: [1] -0.139 | barasertib 0.012 | [2] -0.024 | volasertib 0.119 | [3] 0.078 | [4] 0.337 | [5] 0.427 | alvocidib -0.446 | Tubastatin A 0.131 | encorafenib -0.325 | [7] -0.081 | alisertib -0.126 | [8] -0.171 | gefitinib 0.095

NARS1 (UniProt K7ENF0)
inactive: sotrastaurin 0.107

MYNN (UniProt Q9NPC7)
inactive: vemurafenib 0.078 | [3] -0.096 | saracatinib 0.118 | Tubastatin A 0.055 | [6] 0.113 | defactinib -0.098 | [9] 0.001

NABP1 (UniProt Q96AH0)
inactive: vemurafenib -0.024 | [2] -0.132 | defactinib 0.121 | encorafenib -0.154 | [7] 0.096 | alisertib 0.069 | gefitinib 0.031

NAB1 (UniProt Q13506)
inactive: barasertib -0.035 | [3] 0.012 | [4] -0.043 | [5] -0.02 | saracatinib 0.081 | sotrastaurin -0.028 | alvocidib 0.067 | Tubastatin A -0.019 | [6] -0.094 | [9] -0.07 | alisertib -0.055 | gefitinib 0.05

MUC5B (UniProt Q9HC84)
inactive: [1] 0.085 | [2] 0.027 | volasertib -0.008 | [4] 0.685 | [5] -0.324 | saracatinib 0.004 | sotrastaurin -0.055 | alvocidib -0.128 | [6] -0.071 | [9] -0.009 | encorafenib -0.238 | [7] 0.587 | alisertib 0.074 | [8] -0.061 | gefitinib 0.009

Two neighbouring entries already listed, quoted:
MYNN (UniProt Q9NPC7)
inactive: vemurafenib 0.078 | [3] -0.096 | saracatinib 0.118 | Tubastatin A 0.055 | [6] 0.113 | defactinib -0.098 | [9] 0.001

NABP1 (UniProt Q96AH0)
inactive: vemurafenib -0.024 | [2] -0.132 | defactinib 0.121 | encorafenib -0.154 | [7] 0.096 | alisertib 0.069 | gefitinib 0.031

(cont.)

N4BP3 (UniProt O15049)
inactive: [1] -0.009 | barasertib 0.315 | volasertib -0.001 | [6] -0.141 | alisertib 0.05 | [8] 0.056 | gefitinib -0.044

NCL (UniProt H7BY16)
inactive: barasertib -0.027 | alisertib -0.048 | gefitinib -0.013

NCCRP1 (UniProt Q6ZVX7)
inactive: [1] -0.247 | barasertib 0.28 | volasertib 0.134 | [3] 0.136 | [4] 0.05 | [5] -0.144 | saracatinib -0.018 | sotrastaurin 0.115 | alvocidib 0.14 | Tubastatin A -0.083 | [9] -0.515 | [8] -0.102

MYL12A (UniProt P19105)
inactive: [4] 0.185 | [5] -0.394 | alvocidib -0.098 | [6] 0.068

NCLN isoform 2 (UniProt Q969V3)
inactive: vemurafenib 0.018 | [2] 0.097 | [3] -0.179 | sotrastaurin 0.05 | Tubastatin A -0.219 | defactinib 0.124 | encorafenib -0.165 | [7] -0.08

NACA (UniProt F8VNW4)
inactive: [1] -0.168 | volasertib 0.018 | [8] -0.014

NAMPT (UniProt C9JF35)
inactive: [1] 0.055 | volasertib -0.013 | [4] -0.196 | [5] 0.215 | alvocidib 0.012 | [6] 0.07 | [8] -0.083

NAP1L4 (UniProt C9J6D1)
inactive: [1] -0.054 | volasertib -0.229 | [8] 0.078

NCF4 (UniProt Q15080)
inactive: barasertib -0.23 | [2] -0.009 | [4] -0.423 | [5] 0.201 | sotrastaurin -0.045 | alvocidib -0.089 | encorafenib -0.024 | [7] 0.08

MYH2 (UniProt Q9UKX2)
inactive: barasertib 0.317 | saracatinib 0.167 | [9] -0.078

MUS81 (UniProt Q96NY9)
inactive: [1] -0.155 | barasertib -0.087 | volasertib 0.027 | [3] 0.117 | [4] -0.199 | [5] 0.083 | saracatinib 0.03 | sotrastaurin 0 | alvocidib 0.014 | Tubastatin A -0.469 | [6] 0.034 | [9] 0.066 | alisertib 0.043 | [8] 0.116 | gefitinib -0.025
